# In publication PMC5311971:
# Chains of the proteins cited; added tags and fusions are not shown. Lines headed by an entry give the natural chain unless they say otherwise; changes in a name come on top.
# UniProt P0AA16: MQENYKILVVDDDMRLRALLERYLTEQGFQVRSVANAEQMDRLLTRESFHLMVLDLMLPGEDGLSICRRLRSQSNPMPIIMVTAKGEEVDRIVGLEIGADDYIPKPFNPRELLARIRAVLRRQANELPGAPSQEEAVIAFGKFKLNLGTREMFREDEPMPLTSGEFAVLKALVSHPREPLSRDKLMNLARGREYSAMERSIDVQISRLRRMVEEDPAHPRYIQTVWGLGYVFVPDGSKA
# Target: OmpR (phosphorylated, purified from LB culture) (UniProt P0AA16)
# Assay: EMSA
# Settings: 10 mM Tris pH 7.5, 100 mM KCl, 10 mM MgCl2, 1 mM DTT, 5% glycerol, 20 uL, ~80 ng DNA, 30 min at room temperature, 5% native TBE gel, ethidium bromide, recombinant protein
# [1] = probe letters rebuilt from the primers and the genome
Sequence,binding result (300 ng OmpR),binding result [1]
AATTTTTTCACATATTTACATTTAATCACACAATTTCACTTTCATTACAT (double strand) [Pmic fragment 10 (-61/-110)],binds,–
TCACACAATTTCACTTTCATTACATTTTTGTTATTGGCTATCTTGAACGCA (double strand) [Pmic fragment 9 (-35/-84)],no binding,–
CCGGAATTCATGGAAAACCTGAATATGGATCTGCTGTACATGGCTGCCGCTGTGATGATGGGTCTGGCGGCAATCGGTGCTGCGATCGGTATCGGCATCCTCGGGGGTAAATTCCTGGAAGGCGCAGCGCGTCAACCTGATCTGATTCCTCTGCTGCGTACTCAGTTCTTTATCGTTATGGGTCTGGTGGATGCTATCCCGATGATCGCTGTAGGTCTGGGTCTGTACGTGATGTTCGCTGTCGCGCATCATCACCATCACCATTAGGTCGACGCG (double strand) [atpE fragment],–,no binding
ACCTTTCCGTCAACAAGAGGTTTTGGTTGAATAATATTAATATTTGATATGCATCTTACCTGTGTGATGTTAAAGTTTTATACTATAATATATTTAACAATATAACAAAGCCGTTTATTCCCGCATGTAACAGCATTGGATAG (double strand) [PmicD-20/-163],–,no binding

# The exact form of at least one protein or probe is not confirmed. No signal at the amounts used counts as a negative.
